Some of the results follow. These are further read-outs of the screen, such as a control signal, another cell line or another target. No call is given for them. Most of these compounds were active or inconclusive in the main read-out, so they are no random draw. Words in brackets tell the shape of the fitted curve; partial curves, single points and poor fits give uncertain potencies.
Test: Cell signaling CRE-BLA (Fsk stim)
Settings: CHO CRE-bla reporter (cAMP response element driving beta-lactamase), forskolin EC10, beta-lactamase ratio; measured here: 460 nm blue channel
Summary of the method: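 Beta-lactamase reporter under a cAMP responsive element in CHO cells; compounds tested in titration series against EC10 NKH 477, 3 h at 37 °C. Read-out: CCF4 FRET ratio 460nm/530nm (excitation 405nm) giving %Activity, fitted to AC50.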

SMILES	AC50
CN1CCN(S(=O)(=O)c2cccc(C(=O)N(c3ccccn3)C3CCCCC3)c2)CC1	3.98 µM [falling, partial curve]
CCOC(=O)C1CCN(c2ncnc3c2[nH]c2cccc(OC)c23)CC1	12.6 µM [rising, single point]
CN(C)c1nc(Oc2ccc(/C=N/O)cc2)nc(N(C)C)n1	7.94 µM [rising, partial curve]
Oc1c(CN2CCOCC2)cc(COCc2ccccc2)c2cccnc12	0.316 µM [rising, full curve]
Cc1ccc(S(=O)(=O)O[C@H]2C[C@@H](C(C)(C)C)CC[C@@H]2c2ccccc2)cc1	3.16 µM [rising, single point]
Cc1csc(NC(=O)c2cc3c(s2)-c2ccccc2OC3)n1	15.8 µM [rising, partial curve]
COc1ccc(CCn2c(-c3ccco3)nc3nc4ccccc4nc32)cc1	10 µM [rising, partial curve]
Cc1cc(C)n2c(SCc3cccs3)nnc2n1	15.8 µM [rising, single point]
CCn1c(=O)cc(SCC(=O)N2CCN(C(=O)c3ccco3)CC2)c2ccccc21	2 µM [falling, partial curve, poor fit]
COc1ccc(-c2nn3c(-c4ccccc4)nnc3s2)cc1OC	5.01 µM [rising, partial curve]
COc1ccc(C)cc1NC(=O)CSc1nnc(-c2ccco2)n1Cc1ccco1	10 µM [rising, partial curve]
O=C(CN1CCOCC1)Nc1ccc(Oc2ccc(NC(=O)CN3CCOCC3)cc2)cc1	2 µM [rising, partial curve]
Clc1ccc(C2=Nn3c(nnc3-c3n[nH]c4c3CCC4)SC2)cc1Cl	0.501 µM [rising, full curve]
CSc1nsc(SCC(=O)NC2CCCCC2)n1	1 µM [falling, full curve, poor fit]
N#Cc1c(N)nc2c(c1-c1ccc3c(c1)OCO3)CCCCCC2	5.01 µM [rising, partial curve]
C/C(=N\O)C(=O)NCc1ccncc1	25.1 µM [falling, single point]
Cc1ccc(N=c2oc3cc(O)ccc3cc2C(N)=O)cc1	12.6 µM [rising, partial curve]
Cc1c(C(=O)N2CCN(c3ccc(C(F)(F)F)cn3)CC2)oc2ccccc12	0.0794 µM [falling, full curve]
CC1CC(C)CN(c2ncnc3c2cnn3Cc2ccc(Cl)cc2)C1 (centres undefined)	10 µM [rising, single point]

In another format: two of the compounds above
SMILES | AC50
Cc1c(C(=O)N2CCN(c3ccc(C(F)(F)F)cn3)CC2)oc2ccccc12 | 0.0794 µM [falling, full curve]
CC1CC(C)CN(c2ncnc3c2cnn3Cc2ccc(Cl)cc2)C1 (centres undefined) | 10 µM [rising, single point]

Reference: PubChem BioAssay AID662 (National Center for Advancing Translational Sciences (NCATS), 2007)
